According to PubChem BioAssay AID1671190 (National Center for Advancing Translational Sciences (NCATS), 2021):
“And” between values parts separate entries of the source, which are not always exact repeats. Equal values may be shown once. The campaign covered roughly 580,000 compounds. About 6,100 (1.1%) were called active. Inconclusive means that the source gave no clear call. Such entries were picked first, then a sample of the others. The call rests on the fitted dose curve; in most records, active means well fitted inhibition curve with a large enough effect; inconclusive means small, poorly fitted or top-dose-only effect, or another doubt; inactive means no such curve, though single readings can be large or run the other way. Where the call is inconclusive, the potency comes from a doubtful curve fit.

Protein sequences, listed by entry. Tags and fused reporters are not part of them. Lines headed by an entry give the natural chain unless they say otherwise; changes in a name come on top.
UniProt P18054: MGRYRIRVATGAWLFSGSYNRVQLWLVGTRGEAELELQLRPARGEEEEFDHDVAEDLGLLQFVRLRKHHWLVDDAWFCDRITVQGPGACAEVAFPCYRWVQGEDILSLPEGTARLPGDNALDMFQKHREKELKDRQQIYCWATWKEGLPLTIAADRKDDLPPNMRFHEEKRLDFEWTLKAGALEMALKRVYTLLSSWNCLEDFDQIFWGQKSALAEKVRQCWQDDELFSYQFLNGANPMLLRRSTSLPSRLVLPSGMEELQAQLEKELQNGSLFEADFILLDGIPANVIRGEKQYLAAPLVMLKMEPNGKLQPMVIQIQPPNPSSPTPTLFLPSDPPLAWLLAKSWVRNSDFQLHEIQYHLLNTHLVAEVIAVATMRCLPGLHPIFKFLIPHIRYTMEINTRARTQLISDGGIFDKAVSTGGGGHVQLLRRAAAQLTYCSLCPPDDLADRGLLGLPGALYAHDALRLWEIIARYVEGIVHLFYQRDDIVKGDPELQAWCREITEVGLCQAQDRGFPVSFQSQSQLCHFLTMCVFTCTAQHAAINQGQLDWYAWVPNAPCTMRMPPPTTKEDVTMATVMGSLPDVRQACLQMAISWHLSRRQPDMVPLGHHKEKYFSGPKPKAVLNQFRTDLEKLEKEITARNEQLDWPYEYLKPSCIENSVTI

What follows are molecules tested against Polyunsaturated fatty acid lipoxygenase ALOX12 (Homo sapiens) (UniProt P18054) (assay: Primary qHTS assay for inhibitors of human arachidonate 12S-lipoxygenase (ALOX12): Round 2). Conditions: purified 12hLO, xylenol orange hydroperoxide absorbance; activity change, negative = inhibition: at 108 µM (top of the series) unless noted.
How it was run: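 Purified human 12hLO (150 nM final) in 25 mM Hepes, 0.01% Triton X-100, pH 7.0 was preincubated 15 min at room temperature with compound. Then 40 uM arachidonic acid was added, 30 min. Hydroperoxide was read by Fe-XO absorbance ratio 573/405 nm.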
On the % scale 0 is the no-effect control and ±100 the full control effect; potency means the concentration at half of the fitted maximal effect.

| SMILES | Potency | activity change, negative = inhibition |
| --- | --- | --- |
| O=C(COc1ccccc1)N1CCC2(CC1)NC(=O)N(c1cccc(F)c1)N2 | active: 2.82 µM | – |
| CCN1CCCC1CNC(=O)CN1C(=O)COc2ccc(C)cc21 (configuration not stated) | inconclusive: 0.631 µM [inhibitor, full curve, poor fit] | – |
| COc1ccc(/C=C2\C(=O)NCC(=O)N2C)cc1 | inconclusive: 126 µM [inhibitor, single point] | – |
| COc1ccc(-n2ncc3c(NCc4cccs4)ncnc32)cc1 | inconclusive: 14.1 µM [inhibitor, partial curve, poor fit] | – |
| COc1cccc(Nc2nc(-c3cccc(N4C(=O)c5ccccc5C4=O)c3)cs2)c1 | inconclusive: 10 µM [inhibitor, full curve, poor fit] and inconclusive: 31.6 µM [inhibitor, partial curve, poor fit] | – |
| COc1cc(NS(=O)(=O)c2cccc3nsnc23)cc(OC)c1 | inconclusive: 35.5 µM [inhibitor, partial curve, poor fit] | – |
| O=C(O)c1ccc(-c2ccc(/C=C3\NC(=O)N(Cc4ccc(Cl)cc4)C3=O)o2)cc1Cl | inconclusive: 44.7 µM [inhibitor, partial curve, poor fit] | – |
| Cc1nc(N2CCC(C)CC2)c2c(C)c(C(=O)Nc3cccc(C(F)(F)F)c3)sc2n1 | inactive | – |
| CCOC(=O)N1CCN(C(=O)c2ccc3nc(C)sc3c2)CC1 | inconclusive: 7.94 µM [inhibitor, partial curve, poor fit] | – |
| CCOC(=O)C(Sc1ncc(C#N)c(N)n1)C(C)C (configuration not stated) | inconclusive: 31.6 µM [inhibitor, single point] | – |
| O=C(NCc1ccncc1)c1cc(-c2ccco2)nc2ccccc12 | inconclusive: 112 µM [inhibitor, partial curve, poor fit] | – |
| O=C(Nc1cc(S(=O)(=O)N2CCOCC2)ccc1N1CCCCC1)c1cc(-c2ccccn2)nc2ccccc12 | inconclusive: 28.2 µM [inhibitor, partial curve, poor fit] | – |
| CCn1ccc2c(OCC(=O)Nc3ccc(C)c(Cl)c3)cccc2c1=O | inconclusive: 56.2 µM [inhibitor, partial curve, poor fit] | – |
| O=C1C(=O)N(CCCN2CCOCC2)C(c2ccc([N+](=O)[O-])cc2)/C1=C(/O)c1ccc2c(c1)OCO2 (configuration not stated) | inconclusive: 44.7 µM [inhibitor, partial curve, poor fit] | – |
| c1ccc(C2(c3ccccc3)CCCN(Cc3cscn3)C2)cc1 | active: 44.7 µM | – |
| Cc1cccc(CCNS(=O)(=O)c2ccc3c(c2)NC(=O)C(C)S3)c1 (configuration not stated) | inconclusive: 100 µM [inhibitor, partial curve, poor fit] | – |
| CCNc1ncc2nc(C)c(=O)n(CCC#N)c2n1 | inconclusive: 50.1 µM [inhibitor, partial curve, poor fit] | – |
| CC(C)CCOC(=O)C[N+](C)(C)CCOC1CC2CCC1(C)C2(C)C (configuration not stated) | inactive | – |
| CCOc1ccc(NC(=S)Nc2ccccc2C2(C)CC2)cc1 | inconclusive: 44.7 µM [inhibitor, partial curve, poor fit] | – |
| O=C(Cc1ccc(Cl)cc1)NCC(c1cccs1)S(=O)(=O)c1ccccc1 (configuration not stated) | inconclusive: 63.1 µM [inhibitor, partial curve, poor fit] | – |
| Clc1ccc(COn2c(-c3ccccc3)nc3ccccc32)cc1 | inactive | – |

| SMILES | Potency | activity change, negative = inhibition |
| --- | --- | --- |
| O=[N+]([O-])c1ccc(Oc2ccc(F)cc2)c2ccncc12 | inconclusive: 11.2 µM [inhibitor, partial curve, poor fit] | – |
| COc1ccc(C(=O)N[C@@H]2CN(C(=O)NC3CCCCC3)CCC[C@H]2O)cc1 | inconclusive: 25.1 µM [inhibitor, full curve, poor fit] | – |
| COc1ccc(CC(=O)Nc2ccc(-c3nnc(-c4ccccc4)o3)cc2)cc1OC | inactive | – |
| O=C(CC1C=CCC1)N(Cc1cccs1)C1CC1 (configuration not stated) | inactive | – |
| OC(c1ccccc1)c1nc(-c2cccc3cccnc23)cs1 (configuration not stated) | inconclusive: 28.2 µM [inhibitor, partial curve, poor fit] | – |
| C[C@H]1CN(c2ccc(Br)cc2)C(=O)[C@@H]1CC(=O)Nc1ccccc1 | inconclusive: 3.55 µM [inhibitor, full curve, poor fit] | – |
| Cc1ccc(C)c(NC(=O)CSc2nnc3[nH]c(=O)cc(-c4ccccc4)n23)c1 | inconclusive: 50.1 µM [inhibitor, partial curve, poor fit] | – |
| CC1(C(=O)NS(=O)(=O)c2ccc(Br)cc2)CCN1C(=O)CCc1ccccc1 (configuration not stated) | inconclusive: 28.2 µM [inhibitor, partial curve, poor fit] | – |
| COc1ccc(-c2cn3cc(Cl)ccc3n2)cc1OC | inconclusive: 25.1 µM [inhibitor, partial curve, poor fit] | – |
| CCN(CC)c1ccc(C=N/C(C#N)=C(\N)C#N)cc1 | inconclusive: 14.1 µM [inhibitor, full curve] | – |
| N#C/C(=N\Nc1ccc(S(=O)(=O)N2CCCCC2)cc1)C(N)=S | active: 50.1 µM | – |
| COc1ccc(NC(=O)CSc2oc(-c3ccco3)nc2S(=O)(=O)c2ccc(C)cc2)c(OC)c1 | inconclusive: 28.2 µM [inhibitor, partial curve, poor fit] | – |
| COc1ccccc1C(=O)Nc1cccc(C(=O)OCc2cc(=O)n3c4c(sc3n2)CCCC4)c1 | inconclusive: 141 µM [inhibitor, partial curve, poor fit] | – |
| COCCN(Cc1nc2ccccc2c(=O)[nH]1)C(=O)Cc1csc(-c2ccc(C)cc2)n1 | inconclusive: 50.1 µM [inhibitor, partial curve, poor fit] | – |
| CC1CCC/C=C/C(=O)c2c(O)cc(O)cc2CC(=O)O1 (configuration not stated) | inactive | – |
| CC(C)Oc1ccc(F)cc1-c1cc(C(=O)NCc2ccc(C(F)(F)F)cc2)[nH]n1 | inactive | – |
| CN(C)S(=O)(=O)N(CC(=O)NCCSCc1ccc(Cl)cc1)c1ccccc1 | inconclusive: 50.1 µM [inhibitor, partial curve, poor fit] | – |
| Cc1c(CNC(C)CCc2ccccc2)c(C(=O)O)c(C)n1Cc1ccc(F)cc1 (configuration not stated) | inconclusive: 112 µM [inhibitor, single point] | – |
| CCN(CC)C(=O)c1sc(NC(=O)c2cccnc2)c(C(=O)OC)c1C | inactive | – |
| O=C(CCC[C@@H]1[C@H]2CCCN3CCC[C@@H](CN1C(=O)NC1CCCCC1)[C@@H]23)NCC1CC1 | inactive | – |
| CCOc1ccc(NC(=O)C(CC(C)C)N2Cc3ccccc3C2=O)cc1 (configuration not stated) | inconclusive: 126 µM [inhibitor, partial curve, poor fit] | – |

| SMILES | Potency | activity change, negative = inhibition |
| --- | --- | --- |
| CCOC(=O)c1ccccc1NC(=O)NCc1c(-n2cccc2)sc2c1CCCC2 | – | inconclusive: -32.3% [inhibitor] |
| Cc1cc(C)c(OCC(=O)OCC(=O)NC2CCCCCCC2)c(C)c1 | inactive | – |
| O=C1[C@@H]2C[C@@H](CN2C(=O)c2ccccc2)Oc2ccccc2N1Cc1ccccc1 | inactive | – |
| c1ccc(-c2ccc(CNC3CCCC3)o2)cc1 | inconclusive: 3.16 µM [inhibitor, full curve, poor fit] | – |
| CC1(C)CC(NC(=O)c2sc3cc(Cl)ccc3c2Cl)CC(C)(C)N1 | inconclusive: 126 µM [inhibitor, single point] | – |
| O=Cc1ccc(-c2cncc(C(=O)O)c2)cc1 | inconclusive: 7.08 µM [inhibitor, full curve] | – |
| CCN(CC)CCOC(=O)C(c1ccccc1)c1ccccc1 | inconclusive: 70.8 µM [inhibitor, partial curve, poor fit] | – |
| CC(=O)Nc1ccc(C2=NN(c3ccccc3)C(c3cccs3)C2)cc1 (configuration not stated) | inconclusive: 44.7 µM [inhibitor, partial curve, poor fit] | – |
| COc1ccc(OC)c(NC(=O)C2CCCCC(=O)N2)c1 (configuration not stated) | inconclusive: 79.4 µM [inhibitor, partial curve] | – |
| CCCCc1c(-c2ccccc2OC)ncn1CCc1cccc(Cl)c1 | inconclusive: 63.1 µM [inhibitor, partial curve, poor fit] | – |
| CSc1nsc(SC)c1NC(=O)Nc1ccccn1 | inactive | – |
| CC1CCN(C(=O)c2ccc3c(c2NCCO)C(=O)c2ccccc2C3=O)CC1 | inactive | – |
| CCN1CCN(c2ccc(S(=O)(=O)N3CCCCC3)cc2NC(=O)/C=C/c2ccc(F)cc2)CC1 | inconclusive: 35.5 µM [inhibitor, partial curve, poor fit] | – |
| O=C(Nc1cccc(C(F)(F)F)c1)c1nc2c(o1)CCN(Cc1ccccc1F)CC2 | inconclusive: 56.2 µM [inhibitor, partial curve] | – |
| COCCOc1cc(-n2cccc2)c(Cl)cc1Cl | inconclusive: 126 µM [inhibitor, single point] | – |
| CC(C)(C)NC(=O)c1cc(Cl)ccc1[N+](=O)[O-] | inconclusive: 3.55 µM [inhibitor, full curve, poor fit] | – |
| CCOCCc1nnc(NC(=O)c2cccc(F)c2)s1 | inconclusive: 44.7 µM [inhibitor, partial curve, poor fit] | – |
| CCOC(=O)C1=C(CSc2nc(-c3ccccc3)ccc2C#N)OC(N)=C(C#N)C1c1ccc(OC)cc1 (configuration not stated) | inconclusive: 14.1 µM [inhibitor, full curve, poor fit] | – |
| CC(NC(=O)CSc1nc2c(c(=O)n(C)c(=O)n2C)n1Cc1ccccc1F)c1ccccc1 (configuration not stated) | inconclusive: 79.4 µM [inhibitor, single point] | – |
| O=C(N/N=C/C=C/c1ccco1)/C(=C/c1ccccc1)NC(=O)c1ccccc1 | inconclusive: 50.1 µM [inhibitor, partial curve, poor fit] | – |

Of the compounds above, these have two or more sulfur atoms:

| SMILES | Potency | activity change, negative = inhibition |
| --- | --- | --- |
| COc1cc(NS(=O)(=O)c2cccc3nsnc23)cc(OC)c1 | inconclusive: 35.5 µM [inhibitor, partial curve, poor fit] | – |
| Cc1cccc(CCNS(=O)(=O)c2ccc3c(c2)NC(=O)C(C)S3)c1 (configuration not stated) | inconclusive: 100 µM [inhibitor, partial curve, poor fit] | – |
| O=C(Cc1ccc(Cl)cc1)NCC(c1cccs1)S(=O)(=O)c1ccccc1 (configuration not stated) | inconclusive: 63.1 µM [inhibitor, partial curve, poor fit] | – |
| N#C/C(=N\Nc1ccc(S(=O)(=O)N2CCCCC2)cc1)C(N)=S | active: 50.1 µM | – |
| COc1ccc(NC(=O)CSc2oc(-c3ccco3)nc2S(=O)(=O)c2ccc(C)cc2)c(OC)c1 | inconclusive: 28.2 µM [inhibitor, partial curve, poor fit] | – |
| CN(C)S(=O)(=O)N(CC(=O)NCCSCc1ccc(Cl)cc1)c1ccccc1 | inconclusive: 50.1 µM [inhibitor, partial curve, poor fit] | – |
| CSc1nsc(SC)c1NC(=O)Nc1ccccn1 | inactive | – |

Ordered by molecular weight (rising): three of the compounds above.

| SMILES | Potency | activity change, negative = inhibition |
| --- | --- | --- |
| c1ccc(-c2ccc(CNC3CCCC3)o2)cc1 | inconclusive: 3.16 µM [inhibitor, full curve, poor fit] | – |
| CC1(C)CC(NC(=O)c2sc3cc(Cl)ccc3c2Cl)CC(C)(C)N1 | inconclusive: 126 µM [inhibitor, single point] | – |
| CC(NC(=O)CSc1nc2c(c(=O)n(C)c(=O)n2C)n1Cc1ccccc1F)c1ccccc1 (configuration not stated) | inconclusive: 79.4 µM [inhibitor, single point] | – |
